Literature values as cited in patent US20030152515A1, “Method for estimating effective regimens and patient survival rates of antibiotic treatments for fatal infectious diseases” (priority 2002, published 2003).

How the values were obtained:
[1] = test system: gram positive and gram negative bacteria; conditions: human, in vivo; cited from earlier work
[2] = test system: gram-positive and gram-negative organisms; conditions: in vivo; cited from earlier work

**Q.** Which results are given for `O=C(O)c1cn(C2CC2)c2cc(N3CCNCC3)c(F)cc2c1=O` [ciprofloxacin]?
**A.** patients remaining culture-positive [1]: more than 60%; AUC/MIC values associated with minimum mortality rates [2]: 100 to 150
